The other results are listed elsewhere or left out. Values are raw readings; no control value is given beside them.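 In the initial screen, polymyxin B was used at a concentration that permeabilizes Salmonella's outer membrane but not its inner membrane. Maximum growth was set by DMSO wells with or without polymyxin B. Since plates varied, data were ranked per plate, and compounds giving the lowest OD600 advanced as hits.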
System: Salmonella enterica serovar Typhimurium SL1344
Test: bacterial growth OD600 after 18 h with compound and polymyxin B; higher = more bacterial growth (less inhibition)
Settings: 50 µM, Mueller-Hinton broth

Row | SMILES | bacterial growth OD600 (polymyxin B 0.75 µg/mL) | bacterial growth OD600 (polymyxin B 1 µg/mL)
1 | O=C(/C=C/c1cccs1)N1CCC(C2(Cc3ccc(F)cc3)NC(=O)N(C3CCOC3)C2=O)CC1 (stereo not given) | 0.798 | 
2 | C#CCN(CC=C)C(=O)c1cc(Cn2cnc3cc(C)c(C)cc32)[nH]n1 |  | 1.22
3 | O=C1N(Cc2cccc(F)c2F)CCCC1(O)CN1CCN(CC2CCC2)CC1 (stereo not given) |  | 0.92
4 | Cc1cc(O)nc(CNC(=O)C2(N3CCCCC3)Cc3ccccc3C2)n1 | 0.757 | 
5 | COc1cccc(CNCc2c(C(=O)N3CCCCCCC3)nc3ccc(Cl)cn23)c1 |  | 0.006
6 | Cc1nc(N2CCC(NC(Cn3cccn3)c3ccccc3)CC2)nc2ccc(F)cc12 (stereo not given) | 0.002 | 
7 | O=C1O[C@@H]2CN(c3ncccn3)C[C@@H]2N1C1CCCC1 | 0.872 | 
8 | O=C(c1cc(F)c(F)cc1F)N1CCOc2ccc(CN3CCN(c4ccccc4)CC3)cc2C1 | 0.799 | 
9 | CC1CN(c2ccc(-c3nc(Cc4ccc(F)cc4)no3)cn2)CCN1C (stereo not given) | 0.237 | 
10 | Cc1ncsc1C(=O)N1CCC(C2CCN(Cc3cccnc3)CC2)C1 (stereo not given) | 1.02 | 
11 | COc1ccccc1CC(=O)NCc1cccnc1N1CCCCCCC1 |  | 0.659
12 | O=C(C#Cc1ccccc1)NC1CCCN(C2Cc3ccccc3C2)C1 (stereo not given) |  | 1.11
13 | COc1cccc(CC(C2CCN(C(=O)COc3ccccc3)CC2)N(C)C(=O)c2ccn(C)n2)c1 (stereo not given) | 0.84 | 
14 | O=C(NCC1CCCN(Cc2cc3ccccc3o2)C1)c1cc2ccccc2[nH]1 (stereo not given) |  | 0.815
15 | Cc1ccccc1CCC1CCCN(C(=O)CCc2ccncc2)C1 (stereo not given) |  | 0.01
16 | C=CCCC(=O)N1CCCC1C(=O)Nc1ccccc1Oc1cccnc1 (stereo not given) |  | 0.784
17 | CC(C)NCc1cccnc1N1CCN(c2ccccn2)CC1 |  | 0.978
18 | CC(=O)c1cc(CN2CCN(c3nc(-c4ccccc4)nc4c3CCC4)CC2)cs1 |  | 0.825
19 | O=C1O[C@@H]2CN(Cc3cnn(-c4cccc(F)c4)c3)C[C@@H]2N1C1CCCC1 | 0.93 | 
20 | COc1cccc([C@@H](C)NC(=O)CCC2(Cc3cc(OC)ccc3F)CCC(=O)N2)c1 (stereo not given in full) | 0.838 | 

Part of the list above in order of molar mass, falling.
Row | SMILES | bacterial growth OD600 (polymyxin B 0.75 µg/mL) | bacterial growth OD600 (polymyxin B 1 µg/mL)
8 | O=C(c1cc(F)c(F)cc1F)N1CCOc2ccc(CN3CCN(c4ccccc4)CC3)cc2C1 | 0.799 | 
18 | CC(=O)c1cc(CN2CCN(c3nc(-c4ccccc4)nc4c3CCC4)CC2)cs1 |  | 0.825
12 | O=C(C#Cc1ccccc1)NC1CCCN(C2Cc3ccccc3C2)C1 (stereo not given) |  | 1.11
